Results as given in article PMC9206271.
These are yes or no findings as the source states them, for the method shown. Binding seen in cells or lysates may run through a third protein. These calls come from enrichment with a bait or labelling near it, and not all partners need be listed.

Protein sequences, listed by entry. Tags and fused reporters are not part of them.
UniProt Q13435: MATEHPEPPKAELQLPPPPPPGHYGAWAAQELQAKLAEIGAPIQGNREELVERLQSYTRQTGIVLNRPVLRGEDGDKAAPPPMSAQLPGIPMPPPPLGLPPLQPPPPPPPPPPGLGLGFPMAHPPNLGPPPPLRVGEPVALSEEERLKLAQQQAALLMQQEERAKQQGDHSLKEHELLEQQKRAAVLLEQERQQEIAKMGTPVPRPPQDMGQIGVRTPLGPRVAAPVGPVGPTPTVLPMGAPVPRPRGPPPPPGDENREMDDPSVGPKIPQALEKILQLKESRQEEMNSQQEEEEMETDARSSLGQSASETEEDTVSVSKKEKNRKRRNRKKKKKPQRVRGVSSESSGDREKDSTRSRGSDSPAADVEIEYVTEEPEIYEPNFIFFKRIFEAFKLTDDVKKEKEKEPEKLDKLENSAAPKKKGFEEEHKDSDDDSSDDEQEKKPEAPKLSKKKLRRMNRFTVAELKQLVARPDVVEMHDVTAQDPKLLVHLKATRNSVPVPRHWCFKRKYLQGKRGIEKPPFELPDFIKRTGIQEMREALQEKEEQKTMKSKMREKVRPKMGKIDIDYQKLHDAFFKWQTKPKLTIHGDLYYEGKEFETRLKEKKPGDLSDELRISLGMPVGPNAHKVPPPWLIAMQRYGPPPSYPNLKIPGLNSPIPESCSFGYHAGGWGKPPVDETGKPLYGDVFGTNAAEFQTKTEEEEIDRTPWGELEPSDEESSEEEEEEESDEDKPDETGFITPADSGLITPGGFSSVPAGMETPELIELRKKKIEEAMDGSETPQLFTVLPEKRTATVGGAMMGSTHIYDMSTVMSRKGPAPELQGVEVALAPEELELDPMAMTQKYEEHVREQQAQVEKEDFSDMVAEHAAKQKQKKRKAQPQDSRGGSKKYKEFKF

Target: SF3B2-TAP (splicing factor 3b subunit 2 with a tandem affinity purification tag) (UniProt Q13435)
Experiment: affinity purification with mass spectrometry; SF3B2-TAP complex purified by tandem affinity purification from nuclear extracts of FaDu cells stably expressing SF3B2-TAP (GFP-TAP as control); SDS-PAGE, silver staining, bands excised, in-gel trypsin digest, LC/MS-MS; three independent experiments

binding: binds
B1: structural maintenance of chromosomes 1A (SMC1A) (protein, UniProt Q14683 1-1233)
chain: MGFLKLIEIENFKSYKGRQIIGPFQRFTAIIGPNGSGKSNLMDAISFVLGEKTSNLRVKTLRDLIHGAPVGKPAANRAFVSMVYSEEGAEDRTFARVIVGGSSEYKINNKVVQLHEYSEELEKLGILIKARNFLVFQGAVESIAMKNPKERTALFEEISRSGELAQEYDKRKKEMVKAEEDTQFNYHRKKNIAAERKEAKQEKEEADRYQRLKDEVVRAQVQLQLFKLYHNEVEIEKLNKELASKNKEIEKDKKRMDKVEDELKEKKKELGKMMREQQQIEKEIKEKDSELNQKRPQYIKAKENTSHKIKKLEAAKKSLQNAQKHYKKRKGDMDELEKEMLSVEKARQEFEERMEEESQSQGRDLTLEENQVKKYHRLKEEASKRAATLAQELEKFNRDQKADQDRLDLEERKKVETEAKIKQKLREIEENQKRIEKLEEYITTSKQSLEEQKKLEGELTEEVEMAKRRIDEINKELNQVMEQLGDARIDRQESSRQQRKAEIMESIKRLYPGSVYGRLIDLCQPTQKKYQIAVTKVLGKNMDAIIVDSEKTGRDCIQYIKEQRGEPETFLPLDYLEVKPTDEKLRELKGAKLVIDVIRYEPPHIKKALQYACGNALVCDNVEDARRIAFGGHQRHKTVALDGTLFQKSGVISGGASDLKAKARRWDEKAVDKLKEKKERLTEELKEQMKAKRKEAELRQVQSQAHGLQMRLKYSQSDLEQTKTRHLALNLQEKSKLESELANFGPRINDIKRIIQSREREMKDLKEKMNQVEDEVFEEFCREIGVRNIREFEEEKVKRQNEIAKKRLEFENQKTRLGIQLDFEKNQLKEDQDKVHMWEQTVKKDENEIEKLKKEEQRHMKIIDETMAQLQDLKNQHLAKKSEVNDKNHEMEEIRKKLGGANKEMTHLQKEVTAIETKLEQKRSDRHNLLQACKMQDIKLPLSKGTMDDISQEEGSSQGEDSVSGSQRISSIYAREALIEIDYGDLCEDLKDAQAEEEIKQEMNTLQQKLNEQQSVLQRIAAPNMKAMEKLESVRDKFQETSDEFEAARKRAKKAKQAFEQIKKERFDRFNACFESVATNIDEIYKALSRNSSAQAFLGPENPEEPYLDGINYNCVAPGKRFRPMDNLSGGEKTVAALALLFAIHSYKPAPFFVLDEIDAALDNTNIGKVANYIKEQSTCNFQAIVISLKEEFYTKAESLIGVYPEQGDCVISKVLTFDLTKYPDANPNPNEQ
